These are yes or no findings as the source states them, for the method shown. For part of these data: Binding can be weak; no strength is given.
T1: Cxxc4 (mouse) (UniProt Q6NXI8)
T1 sequence: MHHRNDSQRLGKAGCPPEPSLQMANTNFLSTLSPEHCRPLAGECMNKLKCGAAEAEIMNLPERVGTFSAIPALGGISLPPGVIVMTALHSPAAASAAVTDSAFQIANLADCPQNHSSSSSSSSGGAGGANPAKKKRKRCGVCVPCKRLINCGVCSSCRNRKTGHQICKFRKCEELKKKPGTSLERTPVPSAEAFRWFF

T2: Cxxc5 (mouse) (UniProt Q91WA4)
T2 sequence: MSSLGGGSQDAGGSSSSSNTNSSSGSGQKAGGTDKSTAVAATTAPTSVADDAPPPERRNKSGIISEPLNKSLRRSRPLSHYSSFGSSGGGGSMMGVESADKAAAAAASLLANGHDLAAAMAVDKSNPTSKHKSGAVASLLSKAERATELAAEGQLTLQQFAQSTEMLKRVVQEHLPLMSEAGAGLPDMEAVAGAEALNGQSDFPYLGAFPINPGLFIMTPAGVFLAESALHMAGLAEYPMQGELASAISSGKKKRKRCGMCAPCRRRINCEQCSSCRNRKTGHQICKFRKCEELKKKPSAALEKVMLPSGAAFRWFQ


Tests used:
Experiment in all cases: fluorescent three hybrid assay (F3H); BHK cells with a lac operator array cotransfected with GBP-lacI, GFP-bait and Ch-prey; the bait is anchored to the array and colocalization of the prey at the array is scored; cells fixed and imaged 16 h after transfection
[1] = target: T1, Cxxc4 (mouse)
[2] = target: T2, Cxxc5 (mouse)
[3] = target: Tet3 (mouse)

Row | Molecule | binding [1] | binding [2] | binding [3]
1 | Tet3 (mouse) (enzyme) | binds | no binding | 
2 | Cxxc4 (protein, UniProt Q6NXI8 1-198) MHHRNDSQRLGKAGCPPEPSLQMANTNFLSTLSPEHCRPLAGECMNKLKCGAAEAEIMNLPERVGTFSAIPALGGISLPPGVIVMTALHSPAAASAAVTDSAFQIANLADCPQNHSSSSSSSSGGAGGANPAKKKRKRCGVCVPCKRLINCGVCSSCRNRKTGHQICKFRKCEELKKKPGTSLERTPVPSAEAFRWFF |  |  | binds

— publication PMC3653909
